Assay results from publication PMC6858068.
No constants are given. Whether binding was seen depends on the method and setting. Some results given as binding are weak or reduced against the parent protein; the word gives no strength. For part of these data: Where a sequence is shown, tags or fusion partners need not be part of it. Each block holds one molecule with its values, some of them ahead of it.

Experiments:
[1] = molecular target: zebrafish His-tagged ASNA1 (wildtype) (zebrafish (Danio rerio)) (UniProt Q6IQE5)
[2] = molecular target: zebrafish His-tagged ASNA1 A143V (zebrafish (Danio rerio)) (UniProt Q6IQE5)
GST-tagged GET4 = GST-tagged GET4 (UniProt Q7L5D6)

binding [1]: binds
binding [2]: binds
Molecule: 3HA-SEC61B, translated in the PURE system (from UniProt P60468 1-96)

binding (GST-tagged GET4): binds
B1: His-tagged UBL4A (protein, UniProt P11441 1-157)
chain: MQLTVKALQGRECSLQVPEDELVSTLKQLVSEKLNVPVRQQRLLFKGKALADGKRLSDYSIGPNSKLNLVVKPLEKVLLEEGEAQRLADSPPPQVWQLISKVLARHFSAADASRVLEQLQRDYERSLSRLTLDDIERLASRFLHPEVTETMEKGFSK
